These results are taken from patent US6399747.

Sequences of proteins named here, by UniProt entry; tags and fusion partners are left off. A change or cut given only in a name is not applied to a line headed by its entry.
UniProt P04386: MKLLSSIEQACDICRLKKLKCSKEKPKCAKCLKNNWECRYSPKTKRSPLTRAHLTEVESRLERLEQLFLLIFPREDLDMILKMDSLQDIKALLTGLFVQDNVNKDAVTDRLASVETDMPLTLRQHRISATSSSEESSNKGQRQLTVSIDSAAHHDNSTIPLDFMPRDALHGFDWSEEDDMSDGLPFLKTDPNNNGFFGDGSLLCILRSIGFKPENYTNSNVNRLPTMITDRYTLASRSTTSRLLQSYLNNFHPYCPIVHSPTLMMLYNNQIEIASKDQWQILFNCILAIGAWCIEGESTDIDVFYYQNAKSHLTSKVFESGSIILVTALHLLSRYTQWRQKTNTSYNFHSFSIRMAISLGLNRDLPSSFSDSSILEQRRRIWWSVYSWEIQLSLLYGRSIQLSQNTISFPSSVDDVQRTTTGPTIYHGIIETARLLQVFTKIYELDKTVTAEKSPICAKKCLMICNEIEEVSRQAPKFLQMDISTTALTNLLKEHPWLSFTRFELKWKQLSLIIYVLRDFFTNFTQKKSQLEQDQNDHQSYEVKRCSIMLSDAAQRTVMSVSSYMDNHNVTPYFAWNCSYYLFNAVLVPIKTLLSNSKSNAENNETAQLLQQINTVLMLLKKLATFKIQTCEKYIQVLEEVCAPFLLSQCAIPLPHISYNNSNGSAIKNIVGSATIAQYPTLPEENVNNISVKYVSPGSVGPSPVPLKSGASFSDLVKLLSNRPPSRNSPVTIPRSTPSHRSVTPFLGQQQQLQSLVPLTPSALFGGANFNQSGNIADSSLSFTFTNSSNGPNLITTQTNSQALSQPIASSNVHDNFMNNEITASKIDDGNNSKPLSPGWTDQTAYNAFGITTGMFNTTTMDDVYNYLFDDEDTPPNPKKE

In assay [1] the target is T1, mPAL (amino acids 11 to 648) expressed in 293T cells from pcDNA3.1-mPAL (mouse) (UniProt Q9Z179).
T1 sequence: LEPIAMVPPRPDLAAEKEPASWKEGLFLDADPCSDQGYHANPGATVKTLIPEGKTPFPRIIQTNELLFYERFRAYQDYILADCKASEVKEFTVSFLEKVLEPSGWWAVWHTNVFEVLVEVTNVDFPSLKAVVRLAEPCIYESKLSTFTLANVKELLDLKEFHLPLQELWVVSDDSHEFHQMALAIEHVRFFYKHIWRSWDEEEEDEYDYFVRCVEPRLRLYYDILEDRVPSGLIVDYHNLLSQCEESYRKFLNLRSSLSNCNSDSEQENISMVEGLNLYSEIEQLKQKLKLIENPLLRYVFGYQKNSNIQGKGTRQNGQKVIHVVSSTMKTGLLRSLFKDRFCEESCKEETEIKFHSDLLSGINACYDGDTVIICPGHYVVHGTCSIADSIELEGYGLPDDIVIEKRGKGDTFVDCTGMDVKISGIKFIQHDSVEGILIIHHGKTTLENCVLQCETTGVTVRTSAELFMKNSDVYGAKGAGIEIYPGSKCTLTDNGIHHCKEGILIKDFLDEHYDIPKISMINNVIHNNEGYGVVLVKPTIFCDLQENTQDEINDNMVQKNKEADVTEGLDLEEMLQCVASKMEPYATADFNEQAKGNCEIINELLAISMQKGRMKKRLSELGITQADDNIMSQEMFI
Briefly: GST pull-down from pcDNA3.1-mPAL-transfected 293T lysate, anti-PAL immunoblot.

Assay [2] has as its target T1, mPAL (amino acids 11 to 648) expressed in 293T cells from pcDNA3.1-mPAL (mouse). Briefly: GST pull-down, 2.5 µg GST-Shc SH2 with 293T-mPAL lysate and 10, 50 and 100 mM free phosphoamino acids.
The target is the same in assay [3]. The assay can be described thus: GST pull-down from cell lysate with 10, 50 and 100 mM free phosphoamino acids.
Assay [4] shares this target. Briefly: GST pull-down.
The target is the same in assay [5]. The assay can be described thus: GST pull-down, anti-mPAL immunoblot. For orientation: In western blotting, separated proteins are transferred to a membrane and probed.
Assay [6] shares this target. The assay can be described thus: GST pull-down from 293T-mPAL lysate with a panel of GST-SH2 fusions.
For assay [7], the target named is GAL4-Shc hybrid fusion protein (full length human p52 Shc fused to the DNA binding domain of GAL4, pAS-1) (yeast; human) (UniProt P04386+P29353). Briefly: yeast two-hybrid, full length p52 Shc as bait.
The target of assay [8] is T2, isolated SH2 region of p52 Shc (yeast two-hybrid construct) (UniProt P29353).
T2 sequence (looked up): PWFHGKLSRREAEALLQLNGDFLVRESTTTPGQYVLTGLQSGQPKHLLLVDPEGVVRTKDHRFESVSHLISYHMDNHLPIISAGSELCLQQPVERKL
The assay can be described thus: yeast two-hybrid with isolated domains.

Assay [9] has as its target T1, mPAL (amino acids 11 to 648) expressed in 293T cells from pcDNA3.1-mPAL (mouse). Briefly: co-immunoprecipitation from co-transfected 293T cells, anti-Shc IP, anti-mPAL immunoblot.
Assay [10] addresses T3, human p52 Shc expressed in 293T cells from pECE-Shc (human) (UniProt P29353).
T3 sequence (looked up): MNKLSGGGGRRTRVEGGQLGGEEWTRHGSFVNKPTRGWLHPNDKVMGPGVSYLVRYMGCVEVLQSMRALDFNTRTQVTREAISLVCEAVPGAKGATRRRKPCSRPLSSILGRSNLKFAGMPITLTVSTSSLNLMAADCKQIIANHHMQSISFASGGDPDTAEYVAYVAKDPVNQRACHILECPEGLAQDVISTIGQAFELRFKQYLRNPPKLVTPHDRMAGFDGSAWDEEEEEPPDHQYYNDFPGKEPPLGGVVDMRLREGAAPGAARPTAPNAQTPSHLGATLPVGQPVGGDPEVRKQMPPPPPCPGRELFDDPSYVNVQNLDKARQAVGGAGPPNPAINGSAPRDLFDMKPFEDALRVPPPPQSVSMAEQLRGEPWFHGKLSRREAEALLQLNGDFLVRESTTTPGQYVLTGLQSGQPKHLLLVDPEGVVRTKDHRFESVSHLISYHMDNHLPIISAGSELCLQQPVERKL
Briefly: co-immunoprecipitation from co-transfected 293T cells, anti-mPAL IP, anti-Shc immunoblot.

In assay [11] the target is T4, p46 Shc expressed in 293T cells from pECE-Shc (human) (UniProt P29353).
T4 sequence (looked up): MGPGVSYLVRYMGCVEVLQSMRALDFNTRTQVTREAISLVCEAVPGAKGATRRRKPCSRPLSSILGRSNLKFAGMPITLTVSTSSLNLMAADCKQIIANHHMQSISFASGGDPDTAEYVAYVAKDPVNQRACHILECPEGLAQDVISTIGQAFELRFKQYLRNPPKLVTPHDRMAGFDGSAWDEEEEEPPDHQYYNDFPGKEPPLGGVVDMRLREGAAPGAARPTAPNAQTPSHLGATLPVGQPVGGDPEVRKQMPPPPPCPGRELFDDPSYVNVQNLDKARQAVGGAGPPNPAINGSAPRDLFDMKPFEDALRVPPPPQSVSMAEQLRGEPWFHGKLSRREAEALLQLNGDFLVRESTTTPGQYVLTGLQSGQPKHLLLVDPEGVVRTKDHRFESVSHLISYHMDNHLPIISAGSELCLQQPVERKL
The assay is described as above.

Assay [12] addresses T5, endogenous Shc of murine cells (NIH 3T3 lysate, primary T cells) (mouse) (UniProt P98083).
T5 sequence (looked up): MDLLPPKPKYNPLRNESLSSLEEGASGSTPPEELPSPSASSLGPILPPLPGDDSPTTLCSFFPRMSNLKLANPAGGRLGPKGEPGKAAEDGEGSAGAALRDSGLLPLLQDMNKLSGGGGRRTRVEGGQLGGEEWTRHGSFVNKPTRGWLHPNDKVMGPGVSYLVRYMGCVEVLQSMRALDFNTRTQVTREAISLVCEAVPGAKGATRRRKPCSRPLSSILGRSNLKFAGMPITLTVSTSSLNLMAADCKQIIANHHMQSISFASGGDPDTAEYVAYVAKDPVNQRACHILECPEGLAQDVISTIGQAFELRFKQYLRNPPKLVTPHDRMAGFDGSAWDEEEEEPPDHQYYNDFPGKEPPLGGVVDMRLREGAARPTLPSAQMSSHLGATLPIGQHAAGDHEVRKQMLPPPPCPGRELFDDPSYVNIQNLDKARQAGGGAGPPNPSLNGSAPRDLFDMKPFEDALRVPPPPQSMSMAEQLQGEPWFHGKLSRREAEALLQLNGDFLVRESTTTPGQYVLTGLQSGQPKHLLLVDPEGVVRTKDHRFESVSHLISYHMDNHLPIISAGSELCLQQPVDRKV
The assay can be described thus: GST pull-down, 10 µg fusion protein with about 1 mg NIH-3T3 lysate, anti-Shc immunoblot.

Results are given in words; binding and its absence hold for the method and conditions named. For part of these data: Binding seen in cells or lysates may run through a third protein. Some entries that bind do so weakly or less than the wild type. For part of these data: Tags and fused reporters may be left off the sequences shown.

B1: GST-Shc SH2 domain fusion protein (protein, UniProt P29353-2 378-469, looked up, not shown: a dimerising Fc or GST)
chain: WFHGKLSRREAEALLQLNGDFLVRESTTTPGQYVLTGLQSGQPKHLLLVDPEGVVRTKDHRFESVSHLISYHMDNHLPIISAGSELCLQQPV
As to B1, the binding entry in assay [1], in assay [2], in assay [3], in [4], in [5] and in assay [6] was “binds” in each case.

B2: mPAL cDNA clone from the yeast two-hybrid screen, fused to the GAL4 transcription activation domain (protein, not shown: large carriers)
chain: MVPPRPDLAAEKEPASWKEGLFLDADPCSDQGYHANPGATVKTLIPEGKTPFPRIIQTNELLFYERFRAYQDYILADCKASEVKEFTVSFLEKVLEPSGWWAVWHTNVFEVLVEVTNVDFPSLKAVVRLAEPCIYESKLSTFTLANVKELLDLKEFHLPLQELWVVSDDSHEFHQMALAIEHVRFFYKHIWRSWDEEEEDEYDYFVRCVEPRLRLYYDILEDRVPSGLIVDYHNLLSQCEESYRKFLNLRSSLSNCNSDSEQENISMVEGLNLYSEIEQLKQKLKLIENPLLRYVFGYQKNSNIQGKGTRQNGQKVIHVVSSTMKTGLLRSLFKDRFCEESCKEETEIKFHSDLLSGINACYDGDTVIICPGHYVVHGTCSIADSIELEGYGLPDDIVIEKRGKGDTFVDCTGMDVKISGIKFIQHDSVEGILIIHHGKTTLENCVLQCETTGVTVRTSAELFMKNSDVYGAKGAGIEIYPGSKCTLTDNGIHHCKEGILIKDFLDEHYDIPKISMINNVIHNNEGYGVVLVKPTIFCDLQENTQDEINDNMVQKNKEADVTEGLDLEEMLQCVASKMEPYATADFNEQAKGNCEIINELLAISMQKGRMKKRLSELGITQADDNIMSQEMFIEIMGNQFKWNGKGSFGTFLY
Take B2: the binding result in [7] and in assay [8] was “binds” throughout.

B3: human p52 Shc expressed in 293T cells from pECE-Shc (protein, UniProt P29353-2 1-473, looked up)
chain: MNKLSGGGGRRTRVEGGQLGGEEWTRHGSFVNKPTRGWLHPNDKVMGPGVSYLVRYMGCVEVLQSMRALDFNTRTQVTREAISLVCEAVPGAKGATRRRKPCSRPLSSILGRSNLKFAGMPITLTVSTSSLNLMAADCKQIIANHHMQSISFASGGDPDTAEYVAYVAKDPVNQRACHILECPEGLAQDVISTIGQAFELRFKQYLRNPPKLVTPHDRMAGFDGSAWDEEEEEPPDHQYYNDFPGKEPPLGGVVDMRLREGAAPGAARPTAPNAQTPSHLGATLPVGQPVGGDPEVRKQMPPPPPCPGRELFDDPSYVNVQNLDKARQAVGGAGPPNPAINGSAPRDLFDMKPFEDALRVPPPPQSVSMAEQLRGEPWFHGKLSRREAEALLQLNGDFLVRESTTTPGQYVLTGLQSGQPKHLLLVDPEGVVRTKDHRFESVSHLISYHMDNHLPIISAGSELCLQQPVERKL
Turning to B3, the binding result in assay [9] is on record as “binds”.

B4: mPAL (amino acids 11 to 648) expressed in 293T cells from pcDNA3.1-mPAL (protein)
chain: LEPIAMVPPRPDLAAEKEPASWKEGLFLDADPCSDQGYHANPGATVKTLIPEGKTPFPRIIQTNELLFYERFRAYQDYILADCKASEVKEFTVSFLEKVLEPSGWWAVWHTNVFEVLVEVTNVDFPSLKAVVRLAEPCIYESKLSTFTLANVKELLDLKEFHLPLQELWVVSDDSHEFHQMALAIEHVRFFYKHIWRSWDEEEEDEYDYFVRCVEPRLRLYYDILEDRVPSGLIVDYHNLLSQCEESYRKFLNLRSSLSNCNSDSEQENISMVEGLNLYSEIEQLKQKLKLIENPLLRYVFGYQKNSNIQGKGTRQNGQKVIHVVSSTMKTGLLRSLFKDRFCEESCKEETEIKFHSDLLSGINACYDGDTVIICPGHYVVHGTCSIADSIELEGYGLPDDIVIEKRGKGDTFVDCTGMDVKISGIKFIQHDSVEGILIIHHGKTTLENCVLQCETTGVTVRTSAELFMKNSDVYGAKGAGIEIYPGSKCTLTDNGIHHCKEGILIKDFLDEHYDIPKISMINNVIHNNEGYGVVLVKPTIFCDLQENTQDEINDNMVQKNKEADVTEGLDLEEMLQCVASKMEPYATADFNEQAKGNCEIINELLAISMQKGRMKKRLSELGITQADDNIMSQEMFI
B4: the binding entry in assay [10] and in assay [11] was “binds” each time.

B5: GST-mPAL fusion protein (PAL amino acids 11 to 648 in pGEX4T3) (protein, not shown: a dimerising Fc or GST)
chain: LEPIAMVPPRPDLAAEKEPASWKEGLFLDADPCSDQGYHANPGATVKTLIPEGKTPFPRIIQTNELLFYERFRAYQDYILADCKASEVKEFTVSFLEKVLEPSGWWAVWHTNVFEVLVEVTNVDFPSLKAVVRLAEPCIYESKLSTFTLANVKELLDLKEFHLPLQELWVVSDDSHEFHQMALAIEHVRFFYKHIWRSWDEEEEDEYDYFVRCVEPRLRLYYDILEDRVPSGLIVDYHNLLSQCEESYRKFLNLRSSLSNCNSDSEQENISMVEGLNLYSEIEQLKQKLKLIENPLLRYVFGYQKNSNIQGKGTRQNGQKVIHVVSSTMKTGLLRSLFKDRFCEESCKEETEIKFHSDLLSGINACYDGDTVIICPGHYVVHGTCSIADSIELEGYGLPDDIVIEKRGKGDTFVDCTGMDVKISGIKFIQHDSVEGILIIHHGKTTLENCVLQCETTGVTVRTSAELFMKNSDVYGAKGAGIEIYPGSKCTLTDNGIHHCKEGILIKDFLDEHYDIPKISMINNVIHNNEGYGVVLVKPTIFCDLQENTQDEINDNMVQKNKEADVTEGLDLEEMLQCVASKMEPYATADFNEQAKGNCEIINELLAISMQKGRMKKRLSELGITQADDNIMSQEMFI
With B5, the binding result in [12] is on record as “binds”.
